Patent publication US7223733B2, “Modulation of TRIP-Br function and method of treating proliferative disorders” (National University of Singapore, priority 2004, dated 2007)
Some of these results come from one statement about several compounds together. [invdT] = inverted (3'-3') thymidine

Columns and labels:
WI-38 fibroblasts = test: Trypan blue exclusion manual cell count of serum-stimulated WI-38 cells; assay type: cell-based, human; conditions: WI-38, 0.1 μM, 72 h post-stimulation
Experimental: DNA enzyme transfection. WI-38 cells were rendered quiescent by cultivation in serum-free medium for 72 h before being transfected with DNA enzyme (0.1 μM) using Superfect as reported previously (Santiago, F. S., et al. Nat Med 5, 1264-1269 (1999)) in accordance to manufacturer's recommendations (Qiagen).
Cell proliferation assays. For the BrdU incorporation assays, growth-quiescent WI-38 cells in 96-well dishes were transfected with DNA enzyme and/or 100 ng of pCMV/E2F1, pCMV/DP1, pRSV/Cyclin E, or pCMV/Cdk2 and then exposed to Bromodeoxyuridine (BrdU, 100 μM) in the presence or absence of 10% FBS for 20 h. Bromodeoxyuridine (BrdU) incorporation was monitored with a calorimetric ELISA assay using a cell proliferation kit according to manufacturer's recommendations (Boehringer Mannheim). For manual cell count, growth-quiescent WI-38 cells in 24-well dishes were transfected with DNA enzyme and then exposed to 10% FBS for 72 h. The cells were rinsed with PBS, pH 7.4, and trypsinized, and 10 μl of cell suspension was taken from each sample and mixed with equal volume of trypan blue stain (Sigma, 0.4% w/v in 1×PBS). The number of unstained cells was enumerated manually using a hemocytometer. For colony formation assays, growth-quiescent WI-38 cells in 12-well dishes were transfected with DNA enzyme and then exposed to 10% FBS for 120 h. […]

U2OS cells = test: Flow cytometric cell cycle analysis of asynchronous U2OS cells; assay type: cell-based, human; conditions: 72 h post-treatment

Substance | inhibition of serum-induced proliferative potential (WI-38 fibroblasts) | cells exhibiting a sub-G1 complement of genomic DNA (U2OS cells)
5′-T TACCCAACAGGCTAGCTACAACGAATATCACA-3′ (DNA TTACCCAACAGGCTAGCTACAACGAATATCACA; DNA, 3' [invdT], backbone not given here) [E-Br2] | 50-60% | –
5′-T TGCTCAGCAGGCTAGCTACAACGACTTGCTCA-3′ (DNA TTGCTCAGCAGGCTAGCTACAACGACTTGCTCA; DNA, 3' [invdT], backbone not given here) [E-Br1] | 50-60% | –
ERQIKIWFQNRRMKWKKATGCLLDDGLEGLFEDID (penetratin tag; Peptide containing penetratin sequence from Drosophila and PHD/bromodomain interacting region from human TRIP-Br1) [*Br1] | – | more than 70%
ERQIKIWFQNRRMKWKKTGFLTDLTLDDILFADID (penetratin tag; Peptide containing penetratin sequence from Drosophila and PHD/bromodomain interacting region from human TRIP-Br2) [*Br2] | – | more than 70%
